No constants are given. Whether binding was seen depends on the method and setting. Some results given as binding are weak or reduced against the parent protein; the word gives no strength.
Biological target: recombinant rat Notch1-Fc (R&D Systems) (rat) (UniProt Q07008)
Test: ELISA: rrNotch1-Fc coated on the plate, bound DLL4-AP detected with PNPP substrate at OD 405 nm

Chains of the proteins cited; added tags and fusions are not shown. Lines headed by an entry give the natural chain unless they say otherwise; changes in a name come on top. Residues count along the entry.
UniProt Q07008, residues 19-488: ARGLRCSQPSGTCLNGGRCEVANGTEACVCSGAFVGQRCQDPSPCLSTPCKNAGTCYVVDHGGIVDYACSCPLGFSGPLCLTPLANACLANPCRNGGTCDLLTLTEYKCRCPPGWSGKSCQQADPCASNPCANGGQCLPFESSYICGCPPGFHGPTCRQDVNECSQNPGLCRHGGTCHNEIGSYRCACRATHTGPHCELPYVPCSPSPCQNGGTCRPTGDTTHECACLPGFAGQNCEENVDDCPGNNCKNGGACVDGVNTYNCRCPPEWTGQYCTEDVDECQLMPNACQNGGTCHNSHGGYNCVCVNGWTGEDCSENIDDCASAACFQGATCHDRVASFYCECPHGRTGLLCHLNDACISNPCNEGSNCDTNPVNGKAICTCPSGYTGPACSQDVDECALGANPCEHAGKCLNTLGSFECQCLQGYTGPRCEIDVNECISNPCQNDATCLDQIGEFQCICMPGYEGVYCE
UniProt Q9NR61: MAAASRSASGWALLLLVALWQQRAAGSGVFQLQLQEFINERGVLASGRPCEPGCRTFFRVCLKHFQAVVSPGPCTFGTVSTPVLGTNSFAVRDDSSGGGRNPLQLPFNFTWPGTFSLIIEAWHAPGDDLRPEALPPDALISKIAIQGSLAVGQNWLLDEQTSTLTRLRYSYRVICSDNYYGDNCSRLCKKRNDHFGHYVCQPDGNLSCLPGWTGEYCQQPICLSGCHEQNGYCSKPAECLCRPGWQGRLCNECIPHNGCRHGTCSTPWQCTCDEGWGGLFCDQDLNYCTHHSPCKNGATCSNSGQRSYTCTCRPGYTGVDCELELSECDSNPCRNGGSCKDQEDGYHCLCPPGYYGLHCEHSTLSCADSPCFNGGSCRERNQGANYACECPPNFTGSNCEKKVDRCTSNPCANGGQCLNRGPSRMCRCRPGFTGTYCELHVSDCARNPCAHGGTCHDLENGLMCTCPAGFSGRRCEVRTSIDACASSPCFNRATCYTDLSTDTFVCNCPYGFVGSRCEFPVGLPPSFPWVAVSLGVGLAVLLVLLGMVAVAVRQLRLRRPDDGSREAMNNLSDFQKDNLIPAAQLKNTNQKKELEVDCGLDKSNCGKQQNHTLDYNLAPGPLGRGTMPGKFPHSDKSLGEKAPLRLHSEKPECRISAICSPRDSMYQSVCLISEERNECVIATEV

Substance: DLL4-AP (amino acid 1-404 of DLL4 fused to human placenta alkaline phosphatase) (from UniProt Q9NR61 26-404; P05187 23-511) (ligand)
- binding: binds
